Patent publication US7781454B2 (priority 2006, dated 2010)
Some entries share one result that the patent states for a list of compounds.

Tests used:
[1] = system: HIV strain containing the K103N mutation; experiment: Spread assay: inhibition of HIV replication (K103N mutant strain); format: cell-based
Experimental: (§1) Assays for the inhibition of acute HIV-1 infection of T-lymphoid cells (alternatively referred to herein as the “spread assay”) were conducted in accordance with Vacca, J. P. et al., Proc. Natl. Acad. Sci. USA 1994, 91: 4096. The assays tested for inhibition of wild type HIV-1 and of HIV strains containing the Y181C or K103N mutation. […] The compounds of Examples 1 to 4 had CIC95 values of less than 10 micromolar in the assay employing the K103N mutant strain. […] Table C also reports the CIC95 values of the compounds of Examples 1-7, 9-13 and 15-29 obtained in the assays employing the Y181C mutant strain and the K103N mutant strain.

[2] = system: HIV strain containing the Y181C mutation; experiment: Spread assay: inhibition of HIV replication (Y181C mutant strain); format: cell-based
Experimental: as §1

| SMILES | CIC95 in the assay employing the K103N mutant strain [1] | CIC95 in the assay employing the Y181C mutant strain [2] |
| --- | --- | --- |
| N#Cc1cc(Cl)cc(Oc2c(Cl)ccc3c2cnn3Cc2n[nH]c3ncccc23)c1 [Example 1, 3-Chloro-5-{[5-chloro-1-(1H-pyrazolo[3,4-b]pyridin-3-ylmethyl)-1H-indazol-4-yl]oxy}benzonitrile] | less than 10 micromolar | less than 10 micromolar |
| N#Cc1cc(Cl)cc(Oc2c(Cl)ccc3c2c(Cl)nn3Cc2n[nH]c3ncccc23)c1 [Example 2, 3-Chloro-5-{[3,5-dichloro-1-(1H-pyrazolo[3,4-b]pyridin-3-ylmethyl)-1H-indazol-4-yl]oxy}benzonitrile] | less than 10 micromolar | less than 10 micromolar |
| N#Cc1cc(Cl)cc(Oc2c(Cl)ccc3c2nnn3Cc2n[nH]c3ncccc23)c1 [Example 4, 3-chloro-5-{[5-chloro-1-(1H-pyrazolo[3,4-b]pyridin-3-ylmethyl)-1H-1,2,3-benzotriazol-4-yl]oxy}benzonitrile] | less than 10 micromolar | less than 10 micromolar |
| Cl.N#Cc1cc(Cl)cc(Oc2c(Cl)ccc3c2cnn3Cc2n[nH]c3nc(N)ccc23)c1 [Example 3, 3-{[5-Chloro-4-(3-chloro-5-cyanophenoxy)-1H-indazol-1-yl]methyl}-1H-pyrazolo[3,4-b]pyridin-6-aminium chloride] | less than 10 micromolar | less than 10 micromolar |
